Assay results reported in publication doi:10.1101/2022.08.24.505191.
These are yes or no findings as the source states them, for the method shown. In cells and extracts the contact can be indirect. Binding calls can cover weak binding; strength is not graded here. Where a sequence is shown, tags or fusion partners need not be part of it.

B1: FLAG-tagged human RNase L (enzyme, UniProt Q05823 1-741)
chain: MESRDHNNPQEGPTSSSGRRAAVEDNHLLIKAVQNEDVDLVQQLLEGGANVNFQEEEGGWTPLHNAVQMSREDIVELLLRHGADPVLRKKNGATPFILAAIAGSVKLLKLFLSKGADVNECDFYGFTAFMEAAVYGKVKALKFLYKRGANVNLRRKTKEDQERLRKGGATALMDAAEKGHVEVLKILLDEMGADVNACDNMGRNALIHALLSSDDSDVEAITHLLLDHGADVNVRGERGKTPLILAVEKKHLGLVQRLLEQEHIEINDTDSDGKTALLLAVELKLKKIAELLCKRGASTDCGDLVMTARRNYDHSLVKVLLSHGAKEDFHPPAEDWKPQSSHWGAALKDLHRIYRPMIGKLKFFIDEKYKIADTSEGGIYLGFYEKQEVAVKTFCEGSPRAQREVSCLQSSRENSHLVTFYGSESHRGHLFVCVTLCEQTLEACLDVHRGEDVENEEDEFARNVLSSIFKAVQELHLSCGYTHQDLQPQNILIDSKKAAHLADFDKSIKWAGDPQEVKRDLEDLGRLVLYVVKKGSISFEDLKAQSNEEVVQLSPDEETKDLIHRLFHPGEHVRDCLSDLLGHPFFWTWESRYRTLRNVGNESDIKTRKSESEILRLLQPGPSEHSKSFDKWTTKINECVMKKMNKFYEKRGNFYQNTVGDLLKFIRNLGEHIDEEKHKKMKLKIGDPSLYFQKTFPDLVIYVYTKLQNTEYRKHFPQTHSPNKPQCDGAGGASGLASPGC

How the values were obtained:
[1] = biological target: T1, FLAG-tagged human RNase L (human) (UniProt Q05823); test: co-IP
T1 sequence: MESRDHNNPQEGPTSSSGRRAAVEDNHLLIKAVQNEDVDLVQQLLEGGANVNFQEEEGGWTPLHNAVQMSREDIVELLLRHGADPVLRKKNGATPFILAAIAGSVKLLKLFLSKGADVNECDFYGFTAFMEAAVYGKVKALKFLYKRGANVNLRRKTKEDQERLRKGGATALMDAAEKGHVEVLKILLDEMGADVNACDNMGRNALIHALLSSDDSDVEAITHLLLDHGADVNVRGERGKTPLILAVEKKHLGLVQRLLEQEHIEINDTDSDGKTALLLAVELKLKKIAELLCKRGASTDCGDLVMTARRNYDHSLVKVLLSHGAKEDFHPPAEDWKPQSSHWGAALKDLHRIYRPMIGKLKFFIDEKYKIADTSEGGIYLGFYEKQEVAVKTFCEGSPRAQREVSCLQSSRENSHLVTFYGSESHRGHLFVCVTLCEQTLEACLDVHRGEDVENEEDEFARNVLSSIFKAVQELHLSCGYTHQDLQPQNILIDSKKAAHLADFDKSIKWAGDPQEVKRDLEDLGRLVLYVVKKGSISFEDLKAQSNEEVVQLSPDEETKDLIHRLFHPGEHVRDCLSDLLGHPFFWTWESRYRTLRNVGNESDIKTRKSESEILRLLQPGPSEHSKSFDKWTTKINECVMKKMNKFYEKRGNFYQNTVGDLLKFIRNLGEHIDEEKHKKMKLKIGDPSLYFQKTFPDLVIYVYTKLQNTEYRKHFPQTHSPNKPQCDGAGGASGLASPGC

[2] = biological target: Halo-tagged SA11 NSP1 (rotavirus A, simian strain SA11); test: pull-down

Molecule | binding [1] | binding [2]
Halo-tagged SA11 NSP1 (rotavirus A, simian strain SA11) | binds | –
B1 | – | binds
